# Test results: the supplement of paper PMC12067093, “Discovery and optimisation of a covalent ligand for TRIM25 and its application to targeted protein ubiquitination” (Chemical Science, 2025)
# The other results are listed elsewhere or left out.
# Compound: CC1Cc2ccccc2N1C(=O)C1CCCN(C1)C(=O)CCl (mixture of isomers) [TRIM25 ligand 11 (diastereomer mixture)]
# Experiment: probe-labelled cysteine peptide fold change vs DMSO (competition) (log2 fold change); higher = less target engagement (more negative = stronger competition)
# Details: THP-1, incubation time: 4 h
# 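Also: competitive chemoproteomic profiling in live THP-1 cells with an iodoacetamide desthiobiotin (IA-DTB) probe, comparing probe-labelled peptide intensities in compound-treated cells against DMSO-treated controls.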
Target,probe-labelled cysteine peptide fold change (10 µM),probe-labelled cysteine peptide fold change (50 µM)
NCAM2_O15394_42_FFTCTAIGEPESIDWYNPQGEK (UniProt O15394),0.321,0.104
MYO9A_B2RTY4_1226_ESSVDCLK (UniProt B2RTY4),-0.162,-0.124
NCAPH_Q15003_255+267_TAASFDECSTAGVFLSTLHCQDYR (UniProt Q15003),0.096,-0.00803
MYO1G_B0I1T2_965_VGELVGVLAAHCQGEGR (UniProt B0I1T2),0.0375,-0.0379
NANS_Q9NR45_46_ECGADCAK (UniProt Q9NR45),0.167,0.0836
NCAPG2_Q86XI2_776_ECLLSAPR (UniProt Q86XI2),0.182,0.165
MYO1F_O00160_807_GQVCEVLK (UniProt O00160),0.0875,0.0884
MYO6_Q9UM54_63_DVEDNCSLMYLNEATLLHNIK (UniProt Q9UM54),0.038,-0.144
NAPRT_Q6XQN6_101_ALDCSEVTVR (UniProt Q6XQN6),0.0227,0.0528
MYH9_P35579_988_KLEEEQIILEDQNCK (UniProt P35579),-0.0172,-0.0176
MYOF_Q9NZM1_1392_KPVVGQCTIER (UniProt Q9NZM1),-0.157,-0.0509
NCAPG2_Q86XI2_285_ILEAIENDCIQDFMFHGIHLPR (UniProt Q86XI2),-0.097,0.0245
NAA30_Q147X3_195_LLSSSLTADCSLR (UniProt Q147X3),0.0453,-0.262
NANS_Q9NR45_19_WVGGQHPCFIIAEIGQNHQGDLDVAKR (UniProt Q9NR45),-0.0562,0.00986
NCBP1_Q09161_231_PHPQEEYLDCLWAQIQK (UniProt Q09161),0.138,0.188
MYH9_P35579_931_CQHLQAEK (UniProt P35579),0.0101,0.142
NAT1_P18440_44_AVPFENLNIHCGDAMDLGLEAIFDQVVRR (UniProt P18440),-0.252,-0.236
NCAPH_Q15003_397_EPCQVQSCQEEMISLGDGDIR (UniProt Q15003),-0.125,-0.425
NBAS_A2RRP1_1777_LQYYFTLLENCGCADLGNCAIKPETHIR (UniProt A2RRP1),0.0499,-0.138
MYO9B_Q13459_1279_SKPCGSPR (UniProt Q13459),-0.0654,-0.314
MYO9B_Q13459_152_QQADFDDLCNLPELTEGNLLK (UniProt Q13459),-0.135,-0.0276

# A second format for part of the listing above:
Target	probe-labelled cysteine peptide fold change (10 µM)	probe-labelled cysteine peptide fold change (50 µM)
NCAPG2_Q86XI2_776_ECLLSAPR (UniProt Q86XI2)	0.182	0.165
MYO1F_O00160_807_GQVCEVLK (UniProt O00160)	0.0875	0.0884
MYO6_Q9UM54_63_DVEDNCSLMYLNEATLLHNIK (UniProt Q9UM54)	0.038	-0.144
NAPRT_Q6XQN6_101_ALDCSEVTVR (UniProt Q6XQN6)	0.0227	0.0528

# More results:

Target,probe-labelled cysteine peptide fold change (10 µM),probe-labelled cysteine peptide fold change (50 µM)
MYO6_Q9UM54_362_VVAGVLHLGNIDFEEAGSTSGGCNLK (UniProt Q9UM54),0.0603,-0.0543
MYO9B_Q13459_34_REQAAYHLHIYPQLSTTESQASCR (UniProt Q13459),-0.0459,0.124
NBN_O60934_323_NYCDPQGHPSTGLK (UniProt O60934),0.245,-0.127
NAA10_P41227_17_NARPEDLMNMQHCNLLCLPENYQMK (UniProt P41227),-0.111,-0.159
MYO6_Q9UM54_514_EGLGVNEVHYVDNQDCIDLIEAK (UniProt Q9UM54),-0.0489,-0.0652
NAP1L4_Q99733_77_CAHIEAK (UniProt Q99733),-0.0897,-0.0549
NAPA_P54920_212_AALCHFCIDMLNAK (UniProt P54920),0.11,0.136
NCAPH_Q15003_418_TMCPLLSMKPGEYSYFSPR (UniProt Q15003),-0.158,-0.448
NAA10_P41227_21_NARPEDLMNMQHCNLLCLPENYQMK (UniProt P41227),0.0341,-0.081
N4BP2_Q86UW6_1561_DHNYSLEHTVQFLNCVLEGDPVK (UniProt Q86UW6),-0.117,-0.208
MYO1G_B0I1T2_831_QDWGCR (UniProt B0I1T2),-0.0534,0.00382
NAT10_Q9H0A0_105_YCYYNETHK (UniProt Q9H0A0),0.0185,0.0915
NCAPH_Q15003_114_FTNTQITEHYSTCIK (UniProt Q15003),0.199,-0.135
NAA15_Q9BXJ9_238_GELLLQLCR (UniProt Q9BXJ9),0.167,0.152
MYOF_Q9NZM1_1660_FGSHCGIPEEYCVSGVNTWR (UniProt Q9NZM1),0.0867,0.145
MYO6_Q9UM54_587_HFAGAVCYETTQFVEK (UniProt Q9UM54),0.156,0.137
NCAPH2_Q6IBW4_309_EREGAPEPASCVK (UniProt Q6IBW4),-0.17,-0.293
NASP_P49321_84_KYGETANECGEAFFFYGK (UniProt P49321),-0.0738,-0.0259
NAA16_Q6N069_82_SHVCWHVYGLLQR (UniProt Q6N069),-0.208,0.0504
NARS_O43776_452_CPEDSR (UniProt O43776),-0.0178,0.016
NAPRT_Q6XQN6_533_LQALVNSLCAGQSP (UniProt Q6XQN6),0.0123,-0.0465

Target,probe-labelled cysteine peptide fold change (10 µM),probe-labelled cysteine peptide fold change (50 µM)
MYH9_P35579_917_KQELEEICHDLEARVEEEEER (UniProt P35579),-0.38,-0.158
NADSYN1_Q6IA69_627_HICTPR (UniProt Q6IA69),-0.193,0.175
NCAPH2_Q6IBW4_184_MNTCVPHPR (UniProt Q6IBW4),-0.163,-0.203
NCAPG_Q9BPX3_509_EALENCITLQDFNR (UniProt Q9BPX3),-0.0612,0.0108
NAMPT_P43490_397_DLLNCSFK (UniProt P43490),0.0749,0.0963
NASP_P49321_254_SVSGTDVQEECR (UniProt P49321),0.024,0.0582
MYH9_P35579_917_QELEEICHDLEAR (UniProt P35579),0.0485,0.055
MYL6_P60660_2_CDFTEDQTAEFK (UniProt P60660),-0.127,-0.256
NCAPD3_P42695_1484_DTPACSR (UniProt P42695),-0.0902,-0.156
NAA15_Q9BXJ9_238_LAVEETKGELLLQLCR (UniProt Q9BXJ9),-0.344,-0.292
NBN_O60934_31_NCAILIENDQSISR (UniProt O60934),0.0195,0.0414
NADSYN1_Q6IA69_416_ILTTCYMASK (UniProt Q6IA69),-0.201,-0.3
MYO18A_Q92614_1155_RAVEELLECLDLEK (UniProt Q92614),0.0734,0.124
NAP1L4_Q99733_247_ADPFSFEGPEIVDCDGCTIDWKK (UniProt Q99733),-0.0819,-0.272
NCAPG_Q9BPX3_177_LQDPKDDECPVVNAYATLIENDSNPEVR (UniProt Q9BPX3),-0.283,-0.251
NAT10_Q9H0A0_746_QTPNDLTGEHSCIMLK (UniProt Q9H0A0),-0.0505,-0.047
NASP_P49321_568_LGEVSVESENYVQAVEEFQSCLNLQEQYLEAHDR (UniProt P49321),-0.127,0.217
MYH9_P35579_896_LQLQEQLQAETELCAEAEELRAR (UniProt P35579),-0.566,-0.0747
NAIP_Q13075_1335_HFTECIK (UniProt Q13075),0.077,0.0448
NAE1_Q13564_153_LADVLWNSQIPLLICR (UniProt Q13564),0.0486,0.00569
NAPA_P54920_42_IEEACEIYAR (UniProt P54920),-0.091,-0.0305

Target,probe-labelled cysteine peptide fold change (10 µM),probe-labelled cysteine peptide fold change (50 µM)
MYO1G_B0I1T2_979_VSDCIPLSHR (UniProt B0I1T2),0.132,0.122
MYO9B_Q13459_1665_ALLCSVCK (UniProt Q13459),0.197,0.174
NBEAL2_Q6ZNJ1_1661_CSWLVPLVR (UniProt Q6ZNJ1),-0.161,0.226
NAPA_P54920_212+215_AALCHFCIDMLNAK (UniProt P54920),-0.0124,0.149
NAA25_Q14CX7_365_KFGDKPCCFTDLK (UniProt Q14CX7),0.0134,-0.0607
MYO1C_O00159_585_NPIMSQCFDR (UniProt O00159),0.0863,-0.0147
NAE1_Q13564_34_LWGDHGQEALESAHVCLINATATGTEILK (UniProt Q13564),-0.0284,0.0385
NAA80_Q93015_104_LHSLGQSSDAFPLCLMLLSPHPTLEAAPVVVGHAR (UniProt Q93015),-0.101,-0.0231
NCAM2_O15394_136_QGEDAEVVCR (UniProt O15394),-0.111,-0.169
NAA15_Q9BXJ9_817_NLQTCMEVLEALYDGSLGDCK (UniProt Q9BXJ9),-0.0826,-0.0271
NARS_O43776_438_LMTDTINEPILLCR (UniProt O43776),-0.0695,-0.0731
MYO6_Q9UM54_790_RVNHWLTCSR (UniProt Q9UM54),0.0796,0.254
NADK2_Q4G0N4_193_LKPVIGVNTDPERSEGHLCLPVR (UniProt Q4G0N4),-0.0696,-0.0485
NAIP_Q13075_124_FHPDCGFLLNK (UniProt Q13075),-0.0984,0.0151
NAA35_Q5VZE5_409_CYLYNNHQAK (UniProt Q5VZE5),0.05,0.0305
NCAM1_P13591_287_NDEAEYICIAENK (UniProt P13591),0.111,0.272
NCAPH_Q15003_309_APLQQCAEDR (UniProt Q15003),0.046,-0.0569
NCAPH_Q15003_397+402_EPCQVQSCQEEMISLGDGDIR (UniProt Q15003),-0.347,-0.256
NAA25_Q14CX7_235_CMAMYK (UniProt Q14CX7),-0.0177,-0.119
NBEAL2_Q6ZNJ1_1491_GQVFSVLTQLGASATLVRPPDCIK (UniProt Q6ZNJ1),-0.0164,-0.0673
MYOF_Q9NZM1_969_AASPSELTCPPGWEWEDDAWSYDINR (UniProt Q9NZM1),0.28,0.0098
